Results reported in publication doi:10.1101/2021.06.21.449233.
No constants are given. Whether binding was seen depends on the method and setting. In cells and extracts the contact can be indirect. Some results given as binding are weak or reduced against the parent protein; the word gives no strength.

The chains behind the UniProt entries cited, without tags or fusion partners. Where a name states a change or a piece, a line headed by the entry shows the natural chain unless it says otherwise.
UniProt P32245: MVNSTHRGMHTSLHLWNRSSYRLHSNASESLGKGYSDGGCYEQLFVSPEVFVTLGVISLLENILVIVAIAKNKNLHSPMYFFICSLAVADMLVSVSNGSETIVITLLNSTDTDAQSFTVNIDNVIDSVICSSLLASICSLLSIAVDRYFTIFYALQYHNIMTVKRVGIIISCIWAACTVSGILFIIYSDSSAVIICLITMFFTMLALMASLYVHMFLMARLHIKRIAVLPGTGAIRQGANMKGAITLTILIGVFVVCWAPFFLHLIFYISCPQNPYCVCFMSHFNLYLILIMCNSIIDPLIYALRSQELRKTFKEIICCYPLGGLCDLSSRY

Legend:
MC4R-Rluc8 (human) = MC4R-Rluc8 (human) (UniProt P32245); experiment: FRET or BRET
MC4R-Rluc8 T150A (human) = MC4R-Rluc8 T150A (human) (UniProt P32245); experiment: FRET or BRET

binding (MC4R-Rluc8 (human)): binds
binding (MC4R-Rluc8 T150A (human)): binds
Substance: β-arrestin 2-Venus (from UniProt P32121 1-409)
